Measured values from PubChem BioAssay AID504375 (National Center for Advancing Translational Sciences (NCATS), 2011).
The campaign covered roughly 1,600 compounds. About 25 (2%) were called active. About 7% were inconclusive and are not listed. Calls come from the whole dose curve; as a rule, active = well fitted inhibition curve with a large enough effect; inconclusive = small, poorly fitted or top-dose-only effect, or effect the other way; inactive = no such curve, though single readings can be large or run the other way. Some of the results follow.

By UniProt entry, the sequences of proteins in these tests, tags left out.
UniProt Q01196, whole entry, looked up: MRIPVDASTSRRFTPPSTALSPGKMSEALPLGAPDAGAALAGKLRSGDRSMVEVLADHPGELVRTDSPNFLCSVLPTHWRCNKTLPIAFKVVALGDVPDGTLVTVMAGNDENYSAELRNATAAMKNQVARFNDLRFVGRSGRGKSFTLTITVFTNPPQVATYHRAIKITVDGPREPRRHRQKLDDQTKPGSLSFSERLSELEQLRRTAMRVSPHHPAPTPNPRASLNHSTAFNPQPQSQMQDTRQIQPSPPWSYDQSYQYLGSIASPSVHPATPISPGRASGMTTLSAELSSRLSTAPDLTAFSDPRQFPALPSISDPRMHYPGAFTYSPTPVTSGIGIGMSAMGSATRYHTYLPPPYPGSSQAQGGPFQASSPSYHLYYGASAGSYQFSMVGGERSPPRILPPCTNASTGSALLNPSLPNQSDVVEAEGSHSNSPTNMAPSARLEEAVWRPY
UniProt Q13951, whole entry, looked up: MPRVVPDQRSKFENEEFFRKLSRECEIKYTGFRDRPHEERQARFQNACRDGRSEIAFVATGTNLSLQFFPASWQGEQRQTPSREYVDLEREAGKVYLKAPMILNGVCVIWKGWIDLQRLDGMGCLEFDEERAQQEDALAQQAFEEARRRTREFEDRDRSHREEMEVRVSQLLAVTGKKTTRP

What follows are compounds tested against Runt-related transcription factor 1 (Homo sapiens) + Core-binding factor subunit beta (Homo sapiens) (UniProt Q01196+Q13951) (assay: qHTS Assay for Compounds Blocking the Interaction Between CBF-beta and RUNX1 for the Treatment of Acute Myeloid Leukemia: Hit Validation with Orthogonal Assay). Conditions: CBFbeta-RUNX1 binding orthogonal assay, biochemical; series mostly up to 41 µM; activity change, negative = inhibition: at the top concentration.
In short: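 Compound was incubated for 30 min with biotin-RUNX1 plus His6-CBF-beta at 30 nM per protein. Binding was then detected by TR-FRET between terbium anti-His antibody and 5 nM streptavidin-XL665, read after 90 min, in the same buffer as the AlphaScreen primary assay.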
% is set by controls: 0 for no effect and ±100 for the full control effect; potency is the fitted concentration of half-maximal effect.

Row | Compound | activity change, negative = inhibition | Potency
1 | COc1ccc(C(=O)/C=C/Nc2cc(C)ccn2)cc1 | inactive: 24.1% | 
2 | Cc1ccc(S(=O)(=O)Nc2cc(-c3ccccc3)nn2C)cc1Cl | inactive: 2.83% | 
3 | CN(C)c1cc(-c2ccc(C#N)cc2)oc(=O)c1Cl | inactive: 19.3% | 
4 | COC(=O)c1ccc(S(=O)(=O)NC(C)(C)C)n1C | inactive: 11% | 
5 | CCCCCNc1nc2sc3c(c2c(=O)n1-c1cccc(Cl)c1)CCN(C)C3 | inactive: 10.2% | 
6 | COc1cscc1C(=O)O | inactive: 0.991% | 
7 | CC1CC(C)(C)NC(=S)O1 (stereo not drawn) | inactive: -6.64% | 
8 | Cc1cccc(C)c1NC(=S)N1CC(C)OC(C)C1 (stereo not drawn) | inactive: 1.41% | 
9 | Cc1c(-c2ccccc2)[n+](=O)c2c(n1[O-])CCCC2 | inactive: -8.42% | 
10 | COc1cccc(/C=N/NC(=O)CCn2cnc3ccccc32)c1 | inactive: 1.09% | 
11 | COc1ccc(NC(=O)c2cccs2)cn1 | inactive: -6.46% | 
12 | CCCCSc1cc(C)nc(N)n1 | inactive: 2.58% | 
13 | CCCCNC(=O)NCCN1CCOCC1 | inactive: 4.56% | 
14 | Cc1csc2ncnc(N3CCN(C(=S)Nc4ccc(F)cc4F)CC3)c12 | inactive: 0.954% | 
15 | CSc1cccc(NC(=O)C(=O)NCc2ccccc2)c1 | inactive: 2.9% | 
16 | CCNc1nc(N)c(C(=O)C23CC4CC(CC(C4)C2)C3)s1 | inactive: 1.87% | 
17 | COc1ccc(NC(=O)c2cc(S(=O)(=O)N3CCCC3)oc2C)cc1 | inactive: -17.2% | 
18 | COc1ccc(-n2c(SCC(=O)Nc3cccc4ccccc34)nc(O)cc2=O)cc1 | inactive: 6.41% | 
19 | CCCCC1C2C(=O)N(c3ccc(C)cc3)C(=O)C2ON1c1ccccc1 (stereo not drawn) | inactive: 1.76% | 
20 | C#CCCOC(=O)Nc1ccccc1 | inactive: -13.1% | 
21 | C=CN1CCCC1=O | inactive: -6.45% [at 82.4 µM] | 
22 | Cc1nc(C)c(-c2ccn(C(=O)NC(C)C)n2)s1 | inactive: -3.96% | 
23 | Cc1cc(C)nc(S/C=C/C(=O)c2ccc(F)cc2)n1 | inactive: -0.82% | 
24 | CC(=O)c1cnn(-c2c(Cl)cc(Cl)cc2Cl)c1C | inactive: 9.66% | 
25 | O=C(O)c1ccc(COc2ccc3c(c2)CCC3)cc1 | inactive: -1.79% | 

Reformatted comma-delimited: three of the compounds above.
Row,Compound,"activity change, negative = inhibition",Potency
5,CCCCCNc1nc2sc3c(c2c(=O)n1-c1cccc(Cl)c1)CCN(C)C3,inactive: 10.2%,
6,COc1cscc1C(=O)O,inactive: 0.991%,
7,CC1CC(C)(C)NC(=S)O1 (stereo not drawn),inactive: -6.64%,

Next part.

Row | Compound | activity change, negative = inhibition | Potency
26 | CCOC(=O)c1cn2nc(Oc3ccc(C(=O)OC)cc3)ccc2n1 | inactive: -15.3% | 
27 | C=CCN=C1S/C(=C\c2ccc(N(C)C)cc2)C(=O)N1CC=C | inactive: 20% | 
28 | CCCCC12CN3CC(C)(CN(C1)C3c1ccc([N+](=O)[O-])o1)C2=O (stereo not drawn) | inactive: 42.5% | 
29 | Cc1ccc(/C=N/n2c(-c3cccc(Cl)c3)n[nH]c2=S)o1 | inactive: -16.6% | 
30 | O=C(O)c1ccc(/C=N\Nc2ccc(S(=O)(=O)N3CCOCC3)cc2[N+](=O)[O-])cc1 | inactive: 30.7% | 
31 | Cc1ccc(C2=NN(C(=O)CCC(=O)O)C(c3cccs3)C2)cc1 (stereo not drawn) | inactive: 3.91% | 
32 | CNC(=O)/C(C#N)=C1\SC(Cc2ccc(F)cc2)C(=O)N1c1ccccc1C (stereo not drawn) | inactive: -6.1% | 
33 | COc1cc(C(=O)NCC2(N3CCCCC3)CCCCC2)ccc1OCC(=O)N1CCOCC1 | inactive: 3.88% | 
34 | O=[N+]([O-])/C=C/c1cc2ccccc2[nH]1 | inactive: 1.95% | 
35 | CC(C)CC1C2C(=O)N(c3ccccc3)C(=O)C2ON1c1ccccc1 (stereo not drawn) | inactive: -1.54% | 
36 | Cc1cc(Cl)c2cc3ccccc3cc2n1 | inactive: -4.05% | 
37 | COc1ccc(OC)c(/C=N/NC(=O)CCc2c(C)n[nH]c2C)c1 | inactive: 3.36% | 
38 | NC(=S)Nc1cccc(Cl)c1 | inactive: 12.5% | 
39 | COc1ccc(OC)c(/C=N/NC(=O)c2cnccn2)c1 | inactive: 26.2% | 
40 | CN1C2CCC1CC(NC(=O)c1ccc(Cl)cc1)C2 (stereo not drawn) | inactive: 10.2% | 
41 | Cc1cccc(-c2n[nH]c(=S)n2/N=C/C=C/c2ccco2)c1 | inactive: -17.8% | 
42 | CC(=O)C1C(=O)CC(c2ccc(Cl)cc2)CC1=O (stereo not drawn) | inactive: -7.82% | 
43 | CCN(CC)C(=S)SSC(=S)N(CC)CC | inactive: 8.2% [at 82.4 µM] | 
44 | COC(=O)c1ccc(COc2ccc3c(c2)CCC3)o1 | inactive: 7.71% | 
45 | COc1ccc(/C=N/n2nnnc2N)cc1OC | inactive: 17.3% | 
46 | c1ccc(-c2ccccn2)nc1 | inactive: 3.96% [at 82.4 µM] | 
47 | COc1ccc(C(=O)/C=C/c2cn(CC(O)CN3CCN(C)CC3)c3ccccc23)cc1OC (stereo not drawn) | inactive: 10.2% | 
48 | Cc1nn2c(NCc3cccnc3)c3c(nc2c1-c1ccccc1)CCC3 | inactive: 3.16% | 
49 | O=C(CSc1n[nH]c(=O)[nH]c1=O)Nc1ccc2c(c1)C(=O)c1ccccc1C2=O | inactive: 24.7% | 
50 | CC(C)c1nc(C#N)c(NN)o1 | inactive: 9.26% | 

Row | Compound | activity change, negative = inhibition | Potency
51 | N=c1c2c(ncn1CCCO)Oc1cc(O)ccc1C2c1ccccc1 (stereo not drawn) | inactive: 1.47% | 
52 | CCOC(=O)c1nnsc1N | inactive: -3.12% | 
53 | CC(C)CCN1NC2(CCC(C)CC2)NC1=S (stereo not drawn) | inactive: -8.44% | 
54 | COC(=O)c1scc(C)c1NC(=O)CSc1ccc(Cl)cc1 | inactive: 7.74% | 
55 | O=C(Nc1ccc(F)cc1)N1CCCN(c2ccc(C(F)(F)F)cn2)CC1 | inactive: 3.83% | 
56 | O=C1Nc2c(ccc(Cl)c2Cl)C(=O)C1(F)c1ccccc1 (stereo not drawn) | inactive: -0.171% | 
57 | Nc1nc(CCl)nc(Nc2ccc3ccccc3c2)n1 | inactive: -14.2% | 
58 | COc1ccc(NS(=O)(=O)c2ccc(Oc3c(C#N)cccc3C#N)cc2)cc1 | inactive: 19.5% | 
59 | CC(C)(C)NC(=O)c1ccc(C(=O)NC(C)(C)C)cc1 | inactive: -8.67% | 
60 | CC(C)(C)NC(=O)c1cccc2c1C(=O)c1ccccc1-2 | inactive: 19.1% | 
61 | O=C(NC(=S)Nc1cc(C(F)(F)F)ccc1N1CCOCC1)c1ccco1 | inactive: -11.6% | 
62 | NNC(=O)c1ccc(COCC(F)(F)C(F)F)cc1 | inactive: 18.8% | 
63 | CCNc1nc(Cl)nc(-c2cn(-c3ccccc3)c3ccccc23)n1 | inactive: -12.2% | 
64 | CCN(CC)C(=O)CSc1nnc2nnc3cc(Cl)ccc3n12 | inactive: 112% | 
65 | NC(=S)Nc1cc(Cl)ccc1Cl | inactive: 2.34% | 
66 | Cc1ccccc1/C=N/n1c(-c2ccccn2)n[nH]c1=S | inactive: -0.917% | 
67 | CC1CC(=O)Nc2ccccc2N1S(=O)(=O)c1ccc(C#N)cc1 (stereo not drawn) | inactive: 6.45% | 
68 | CN(C)c1nc(-c2ccccn2)nnc1-c1ccccc1 |  | active: 22.4 µM
69 | CCOC(=O)c1nnn2c3ccccc3c(=O)n(C)c12 | inactive: 8.61% | 
70 | O=C(O)CSc1ccc(NC(=O)Nc2ccccc2F)cc1 | inactive: -3.32% | 
71 | Cc1ccc(S(=O)(=O)Nc2cc(-c3ccccc3)nn2C)cc1 | inactive: -5.02% | 
72 | COC(=O)c1ccc(S(=O)(=O)N(CCO)Cc2ccccc2)n1C | inactive: 6.67% | 
73 | CCOC(=O)c1ccc(NC(=O)CC2SC3=NCCN3C2=O)cc1 (stereo not drawn) | inactive: -0.306% | 
74 | Cc1ccc(C2=Nc3ccccc3SC(c3cccc([N+](=O)[O-])c3)C2)cc1 (stereo not drawn) | inactive: -0.0245% | 
75 | Cc1ccc(NC(=S)Nc2ccc3[nH]c(=O)[nH]c3c2)cc1 | inactive: -1.76% | 

Row | Compound | activity change, negative = inhibition | Potency
76 | COc1ccc(-c2cn[nH]c2C)cc1 | inactive: 5.55% | 
77 | COC(=O)c1ccc(S(=O)(=O)NCc2ccccc2)n1C | inactive: -10.2% | 
78 | COc1ccc(Nc2cc(=O)n(-c3ccccc3)c3c2c(=O)n(C)c(=O)n3C)cc1 | inactive: 6.15% | 
79 | CCCCCCC(=O)N(O)C1CC(=O)N(c2ccc(F)cc2)C1=O (stereo not drawn) | inactive: -19.4% | 
80 | Cc1oc(S(=O)(=O)N(C)C)cc1C(=O)Nc1ccc(Cl)cc1 | inactive: 6.32% | 
81 | O=S(=O)(NCc1c(Cl)cccc1Oc1ccccc1)c1ccc(F)cc1 | inactive: -3.08% | 
82 | Cc1cccc(C)c1OCC(=O)N(Cc1ccc(N(C)C)cc1)C1CCS(=O)(=O)C1 (stereo not drawn) | inactive: 5.43% | 
83 | CCOC(=O)COc1nc(C)cc(C(F)(F)F)c1C#N | inactive: 13.6% | 
84 | Nc1c2ccccc2nc2ccccc12 | inactive: 26% | 
85 | CC(=O)c1cc(C#N)c(SCc2ccccn2)nc1C | inactive: 30.9% | 
86 | CC(=O)N1CCCC1(C(=O)O)c1ccccc1 (stereo not drawn) | inactive: 3.9% | 
87 | CC(C)COP(=O)(c1ccc(N(C)C)cc1)C(O)c1cccnc1 (stereo not drawn) | inactive: -0.917% | 
88 | C=C(C)C(=O)Nc1cccnc1Oc1ccc(F)cc1 | inactive: -13.7% | 
89 | O=C(O)/C=C/c1cn(-c2ccccc2)nc1-c1ccc(-c2ccc([N+](=O)[O-])cc2)o1 | inactive: 17.8% | 
90 | N/C(CSc1ccccn1)=N\OCc1c(Cl)cccc1Cl | inactive: 4.65% | 
91 | COc1ccc(C(=O)/C=C/Sc2nc3ccccc3o2)cc1 | inactive: -0.575% | 
92 | CC1(C)N=C(N)N=C(N)N1c1ccc(OCCCOc2ccccc2)c(Cl)c1 | inactive: 5.17% | 
93 | Nc1nc(CCl)nc(N(c2ccccc2)c2ccccc2)n1 | inactive: 0.416% | 
94 | Cc1cc(NC(=O)CN2CCCCC2)n(-c2ccccc2)n1 | inactive: 0.881% | 
95 | COc1cc([N+](=O)[O-])ccc1NC(=O)Oc1ccc(NC(C)=O)cc1 | inactive: 19.7% | 
96 | COc1ccc(/C=N/NC(=O)c2cc(C3CC3)[nH]n2)cc1OC | inactive: 6.35% | 
97 | COC(=O)[C@H](CC(C)C)NC(=O)NCCC1=CCCCC1 | inactive: -7.06% | 
98 | COc1ccc(-c2noc(-c3cccs3)n2)cc1OC | inactive: -14% | 
99 | Cc1ccc(C(=O)OCC(=O)Nc2ccc(S(N)(=O)=O)cc2)c(O)c1 | inactive: 2.67% | 
100 | O=c1[nH]c(SCCN2CCOCC2)nc(O)c1-c1ccccc1 | inactive: 8.01% | 

Row | Compound | activity change, negative = inhibition | Potency
101 | COc1ccccc1NC(=S)NC1CCCCCCCCCCC1 | inactive: -0.232% | 
102 | N#CC(C#N)=C(N)Nc1cccc(Cl)c1 | inactive: 0.208% | 
103 | O=C(O)COc1ccccc1/C=N/NC(=O)CSc1nnc(-c2ccc(Cl)cc2)n1C1CCCCC1 | inactive: 11.9% | 
104 | O=S(=O)(c1ccc(Cl)nc1)N1CCc2ccccc21 | inactive: -9.75% | 
105 | Cc1csc2c(N3CCN(S(=O)(=O)c4ccc(Cl)cc4)CC3)ncnc12 | inactive: 2.89% | 
106 | NC(=S)N1CCCc2ccccc21 | inactive: 9.03% | 
107 | O=S(=O)(CCN1CCSCC1)c1ccc(Cl)cc1 | inactive: -6.89% | 
108 | CCCn1nnc(NC(=S)NC(=O)c2ccc(-c3ccc(Br)cc3)o2)n1 | inactive: 6.06% | 
109 | CN(C)CCCNC(=O)c1ccccc1Oc1ccccc1 | inactive: -7.98% | 
110 | NC(=O)C1CCN(C(=S)NC2CC3C=CC2C3)CC1 (stereo not drawn) | inactive: -5.58% | 
111 | CSc1ccc(C(=O)NCC(=O)O)cc1[N+](=O)[O-] | inactive: 33.5% | 
112 | CSc1cccc(NC(N)=S)c1 | inactive: 5.35% | 
113 | C1CCCC(NC2=NCCO2)CCC1 | inactive: 5.31% | 
114 | CN1c2ccccc2C(=O)/C(=C\Nc2ncccn2)S1(=O)=O | inactive: 4.25% | 
115 | OCc1nc2ccc(Cl)cc2[nH]1 | inactive: 3.85% | 
116 | Cc1ccc(/C=N/n2c(-c3ccncc3)n[nH]c2=S)s1 | inactive: 39.9% | 
117 | COC(=O)c1cc(S(=O)(=O)Nc2nn(C)c3cccc(F)c23)oc1C | inactive: 8.34% | 
118 | COc1ccc(Cc2c(O)nc(SCC(=O)N3CCOCC3)[nH]c2=O)cc1 | inactive: 14% | 
119 | CCOC(=O)COc1nc2c(c(-c3ccco3)c1C#N)CCc1ccccc1-2 | inactive: 0.967% | 
120 | CC(=O)Nc1nnc(CSCc2ccc(F)cc2)s1 | inactive: 6.97% | 
121 | Cc1ccc(Cl)cc1NC(=S)NN | inactive: -11.4% | 
122 | Cc1nc([N+](=O)[O-])cn1CCC#N | inactive: 5.53% | 
123 | CCn1c2ccccc2c2cc(NC(=O)c3ccccc3-c3ccccc3C(=O)O)ccc21 | inactive: -23.3% | 
